In all, about 320,000 compounds went through this assay and about 22,000 (6.9%) were called active. Inconclusive results, whose numbers are uncertain, are shown with a selection of clear calls. Calls follow the shape of the dose curve; as a rule, active = well fitted inhibition curve with a large enough effect; inconclusive = small, poorly fitted or top-dose-only effect, or another doubt; inactive = no such curve, though single readings can be large or run the other way. Where the call is inconclusive, the potency comes from a doubtful curve fit.
assay: Primary qHTS for delayed death inhibitors of the malarial parasite plastid, 96 hour incubation; details: P. falciparum luciferase reporter growth; series mostly up to 28.7 µM; activity change, negative = inhibition: at the top concentration
Summary of the method: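 Delayed-death screen, second-generation endpoint: infected erythrocytes, 2% hematocrit, 0.05% parasitemia final; 96 hours at 37 C, 5% CO2; luciferase detection reagent; luminescence decrease equals reduced growth.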
% is scaled to controls: 0 for no effect and ±100 for the full control effect; potency is read from the fitted curve at half-maximal effect.

Structure (SMILES)	Potency	activity change, negative = inhibition
CC(C)n1c(SCC(=O)Nc2ccccc2)nc2c1c(=O)[nH]c(=O)n2C	active: 13.1 µM	–
CCOC(=O)N1CCN(CC(=O)Nc2c(C(=O)OC)[nH]c3ccc(Cl)cc23)CC1	inconclusive: 18.5 µM [inhibitor, single point]	–
Cc1cccc(C)c1NC(=O)CNC(=O)C1CCCN(C(=O)c2ccc(Cl)cc2)C1 (stereo not drawn)	–	inactive: -13%
CCN(CC(=O)Nc1ccc(S(=O)(=O)N2CCCC2)cc1)Cc1ccccc1	inconclusive: 4.65 µM [inhibitor, partial curve]	–
OCC1(CCc2ccccc2)CCN(Cc2cccn2-c2cccnc2)CC1	inconclusive: 20.8 µM [inhibitor, partial curve, poor fit]	–
Cc1noc(C)c1COC(=O)c1cc2c3ccccc3n(C)c2s1	inconclusive: 10.4 µM [inhibitor, single point]	–
C/C=C\C=C\C(=O)N1CC2(CC(c3cccc(NC(=O)/C(C)=C\C)c3)=NO2)C[C@H]1C(N)=O (stereo partly drawn)	inconclusive: 0.0029 µM [inhibitor, full curve, poor fit]	–
O=C(CNC(=O)c1cccs1)N/N=C/c1ccccc1[N+](=O)[O-]	–	inactive: 0%
COCCCNC(=O)CC(=O)N/N=C\c1ccc(SC)cc1	inconclusive: 10.4 µM [inhibitor, single point]	–
Cc1ccc(OC(C)C(=O)Nc2ccccc2C(=O)N2CCN(C)CC2)cc1 (stereo not drawn)	inconclusive: 18.5 µM [inhibitor, single point]	–
O=C1[C@H]2[C@@H](c3ccc(F)cc3)N3C(=O)N(c4cccc(F)c4)C(=O)[C@@]3(Cc3ccc(Cl)cc3)[C@H]2C(=O)N1C1CCCCC1	active: 8.28 µM	–
O=C(Nc1ccc(S(=O)(=O)Nc2ccnn2-c2ccccc2)cc1)C(F)(F)F	–	inactive: 43.5%
CCOc1cc(/C=N/NC(=O)C2CCCC2)ccc1O	–	inactive: -19.7%
S=C(NCc1ccccc1)Nc1ccc2cn[nH]c2c1	–	inactive: -10.8%
Cc1occc1-c1nnc(SCC(=O)NCCc2ccccc2)o1	–	inactive: 37.1%
CCC[n+]1c2ccccc2cc2ccccc21	inconclusive: 11.7 µM [inhibitor, partial curve, poor fit]	–
COC(=O)c1ccc(CN2CCN(C(C)C)C(CCO)C2)cc1 (stereo not drawn)	inconclusive: 18.5 µM [inhibitor, single point]	–
CCN(CC)CCOC(=O)c1ccc(N/C=C(/C#N)c2nc(-c3ccc(OC)cc3)cs2)cc1	inconclusive: 0.522 µM [inhibitor, full curve]	–
CCN(c1ccccc1)S(=O)(=O)c1ccc(C(=O)NCc2ccccn2)cc1	–	inactive: 47.7%
O=C(NCCCn1ccnc1)/C(=C/c1ccc(F)cc1)NC(=O)c1ccccc1	inconclusive: 10.4 µM [inhibitor, partial curve, poor fit]	–
CCc1ccc(S(=O)(=O)Nc2cc(SCC(=O)O)c(O)c3ccccc23)cc1	inconclusive: 18.5 µM [inhibitor, single point]	–
CCN(C(=O)COC(=O)c1c2c(nc3ccccc13)/C(=C/c1ccccc1)CC(C)C2)C1CCS(=O)(=O)C1 (stereo not drawn)	inconclusive: 13.1 µM [inhibitor, single point]	–
Cc1c(C(=O)N2CCN(S(C)(=O)=O)CC2)oc2ccccc12	inconclusive: 11.7 µM [inhibitor, partial curve, poor fit]	–
O=S(=O)(c1ccccc1)c1cnn(-c2ccccc2)c1-c1ccc(F)cc1	active: 5.86 µM	–
O=C(O)c1ccccc1N/C=C\[N+](=O)[O-]	inconclusive: 5.22 µM [inhibitor, single point]	–

Structure (SMILES)	Potency	activity change, negative = inhibition
Cc1cccc(N(C)S(=O)(=O)c2c(C)noc2C)c1	active: 9.28 µM	–
CN(C)C(CNC(=O)Cc1ccc([N+](=O)[O-])cc1)c1ccccc1 (stereo not drawn)	inconclusive: 16.5 µM [inhibitor, single point]	–
CCN(CC)CCNC(=O)c1ccc(NC(=O)c2cn(-c3ccc(F)cc3)nc2-c2cccc(OC)c2)cc1	active: 1.04 µM	–
NC(=O)c1c(N)sc2c1CCCC2	–	inactive: 35.4%
CC1(C)NC(=O)NC2(C)NC(=O)NC(C)(C)C12 (stereo not drawn)	–	inactive: 4.91%
O=[N+]([O-])c1ccc(O)c(Nc2c([N+](=O)[O-])ccc3nonc23)c1	–	inactive: 251%
N#CC1=C2SCN(Cc3ccccc3)CN2C(=O)CC1c1ccc2c(c1)OCO2 (stereo not drawn)	inconclusive: 1.47 µM [inhibitor, full curve]	–
COc1ccc(OCC(=O)Nc2nc3ccc(NC(C)=O)cc3s2)cc1	inconclusive: 18.5 µM [inhibitor, single point]	–
Cc1ccc(O)c(C(=O)/C=C/c2ccc3c(c2)OCCCO3)c1	inconclusive: 1.47 µM [inhibitor, partial curve, poor fit]	–
Cc1ccc(CCNC(=O)C2CCCN(S(=O)(=O)c3c(C)nn(C)c3C)C2)cc1 (stereo not drawn)	–	inactive: -14.9%
O=C(NNc1ccccc1Cl)C(O)(c1cccc(C(F)(F)F)c1)c1cccc(C(F)(F)F)c1	active: 2.62 µM	–
COc1ccc(CNCCc2ccc(Cl)cc2)c(OC)c1OC	–	inactive: 155%
CCCCCCn1c(O)c(/C=N/N2CCCCCC2)c(=O)[nH]c1=O	inconclusive: 0.262 µM [inhibitor, partial curve, poor fit]	–
O=C1CCCN1CCC(=O)N1CCCC(CO)(Cc2ccccc2)C1 (stereo not drawn)	inconclusive: 5.22 µM [inhibitor, partial curve]	–
Cn1c(=O)oc2cc(S(=O)(=O)NCCC(=O)NCc3ccccc3Cl)ccc21	active: 10.4 µM	–
COCCCNC(=O)c1sc2ncn(CC(=O)Nc3ccc(C)c(Cl)c3)c(=O)c2c1C	–	inactive: 3.21%
O=C(NCC1CCCO1)c1cccc(Br)c1 (stereo not drawn)	inconclusive: 18.5 µM [inhibitor, single point]	–
CCN(CC)CCNC(=O)c1ccc(NC(=O)/C=C/c2cc(OC)c(OC)c(OC)c2)cc1	inconclusive: 2.62 µM [inhibitor, full curve, poor fit]	–
O=C1NC(Cc2ccccc2)c2nc3ccccc3c(=O)n2-c2ccc(Cl)cc21 (stereo not drawn)	–	inactive: 49%
CCN(CC(O)CON=C1c2ccccc2-c2ccccc21)S(=O)(=O)c1ccc(C)cc1 (stereo not drawn)	active: 2.33 µM	–
O=C(Nc1ccccn1)c1ccc(-c2ccccc2)cc1	–	inactive: -76.1%
Clc1ccccc1N1CCN(c2ncnc3nc[nH]c23)CC1	–	inactive: 23.9%
S=c1[nH]nc(-c2ccncc2)n1/N=C/C=C/c1ccccc1	inconclusive: 2.33 µM [inhibitor, full curve, poor fit]	–
CCCc1[nH]n(-c2ccc([N+](=O)[O-])cc2)c(=O)c1C(C)=NCc1ccncc1	–	inactive: -2.92%
COc1ccc(NC(=O)CSc2nnc3ccc(-c4ccccn4)nn23)c(OC)c1	inconclusive: 11.7 µM [inhibitor, single point]	–

Structure (SMILES)	Potency	activity change, negative = inhibition
CCn1cc(CN(C)S(=O)(=O)c2cccc([N+](=O)[O-])c2)cn1	inconclusive: 16.5 µM [inhibitor, single point]	–
COc1cc(OC)cc(C(=O)NC(=S)N2CCCCC2c2cccnc2)c1 (stereo not drawn)	inconclusive: 10.4 µM [inhibitor, single point]	–
O=C(Nc1ccc2c(c1)oc1ccccc12)c1ccc2c(c1)OCO2	inconclusive: 11.7 µM [inhibitor, single point]	–
NC(=O)c1ccc(-n2nnnc2SCC(=O)NC2CCCCC2)cc1	active: 13.1 µM	–
CCC(=NCc1ccccc1)c1c(C(F)(F)F)[nH]n(-c2nc3ccccc3s2)c1=O	–	inactive: 17.4%
CCCCOc1nc(N2CCOCC2)nc(C)c1[N+](=O)[O-]	–	inactive: -14.8%
COc1ccc(-c2oc(=O)c3cc(OC)c(OC)cc3c2C(F)(F)F)cc1	inconclusive: 4.65 µM [inhibitor, partial curve, poor fit]	–
Cc1cccc(Cn2c(SCCN3CCOCC3)nc3c2c(=O)n(C)c(=O)n3C)c1	inconclusive: 11.7 µM [inhibitor, single point]	–
Cc1cccc(C)c1N1CCN(C(=O)N2CCCCC2)CC1	–	inactive: 74.4%
CCN1CCCC1CNCc1ccc(OCc2ccc(Cl)nc2)c(OC)c1 (stereo not drawn)	inconclusive: 10.4 µM [inhibitor, single point]	–
O=C(N/N=C/c1c(Cl)[nH]c2ccccc12)c1sc2ccccc2c1Cl	inconclusive: 18.5 µM [inhibitor, single point]	–
CCN(C(=O)CN1c2ccccc2CC1C)c1c(N)n(Cc2ccccc2)c(=O)[nH]c1=O (stereo not drawn)	–	inactive: 30.9%
CCCc1c(C(=O)N/N=C/c2cccc3ccccc23)nnn1-c1nonc1N	inconclusive: 18.5 µM [inhibitor, single point]	–
Cc1noc(C(=O)NCc2ccccc2)c1Cl	–	inactive: -1.19%
Cc1ccc2nc(/C=C/c3cccc(F)c3)ccc2c1	–	inactive: 287%
COc1ccc(CNC(=O)c2csc3c2CCCC3)cc1	–	inactive: -20.4%
O=C(CN1CCCC(O)C1)N1c2ccccc2Sc2ccc(C(F)(F)F)cc21 (stereo not drawn)	–	inactive: 35%
CCN(CC)C(=S)Nc1cc(C(=O)OC)ccc1C(=O)OC	inconclusive: 18.5 µM [inhibitor, single point]	–
Nc1nc(-c2ccc(Br)cc2)cc(C(F)(F)F)n1	–	inactive: -15.5%
CCOC(=O)c1cnc2ccc(C(=O)OC)cc2c1NCCN1CCOCC1	inconclusive: 18.5 µM [inhibitor, single point]	–
COC(=O)c1ccc(C2C(C#N)=C(C)NC3=C2C(=O)CC(C)(C)C3)cc1 (stereo not drawn)	active: 9.28 µM	–
COCCCn1c(=O)c2sccc2n2c(CCCC(=O)NCc3cccc(OC)c3)nnc12	inconclusive: 0.185 µM [inhibitor, full curve]	–
CCCN(CC(=O)Nc1ccccc1OC)C(=O)CSC(=S)N1CCCC1	inconclusive: 18.5 µM [inhibitor, single point]	–

Quoted at random: 6 entries already listed.
Structure (SMILES)	Potency	activity change, negative = inhibition
COC(=O)c1ccc(C2C(C#N)=C(C)NC3=C2C(=O)CC(C)(C)C3)cc1 (stereo not drawn)	active: 9.28 µM	–
Nc1nc(-c2ccc(Br)cc2)cc(C(F)(F)F)n1	–	inactive: -15.5%
CCCCOc1nc(N2CCOCC2)nc(C)c1[N+](=O)[O-]	–	inactive: -14.8%
O=C(N/N=C/c1c(Cl)[nH]c2ccccc12)c1sc2ccccc2c1Cl	inconclusive: 18.5 µM [inhibitor, single point]	–
NC(=O)c1ccc(-n2nnnc2SCC(=O)NC2CCCCC2)cc1	active: 13.1 µM	–
O=C(Nc1ccc2c(c1)oc1ccccc12)c1ccc2c(c1)OCO2	inconclusive: 11.7 µM [inhibitor, single point]	–
